Experimental data: PubChem BioAssay AID652272 (Drosophila RNAi Screening Center, 2013)
The screen tested about 21,000 reagents; shown is a random part of those that have a named target and a result. In the full data, 503 (2.4%) got an active call. 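Raw plate light values, not normalised; calls rest on replicate z-scores that were not deposited; hits include reporter decreases as well as increases.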 Reagents against one gene are numbered here. Names joined by + are all predicted targets of the reagent. Not given: the amount of reagent, the time to read-out.

- Assay: 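Finding fly genes that regulate Hedgehog signal transduction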 (primary screen)
- Cell system: Drosophila clone 8 (Cl8) cells
- Reagents: long dsRNA against Drosophila genes
- Measured: 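Plate reader light from a firefly reporter under a ptc promoter fragment that responds to Hedgehog, with Renilla light as transfection reference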
- Direction: firefly Hh reporter signal: higher = more ptc reporter light; Renilla reference signal: higher = more Renilla control light
- Active means: 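Called a hit if the two-replicate mean z-score lies below -2 or above +3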
- Meaning of the calls: active = hit: reporter lowered or raised; inactive = not a hit

With Mesh1 (GeneID 43456), how do the results read?
firefly Hh reporter signal, replicate 1: 74724; firefly Hh reporter signal, replicate 2: 98048; Renilla reference signal, replicate 1: 2263; Renilla reference signal, replicate 2: 2796; call: inactive

What did the screen give for CG13950 (GeneID 33267)?
firefly Hh reporter signal, replicate 1: 1.03e5; firefly Hh reporter signal, replicate 2: 96614; Renilla reference signal, replicate 1: 2869; Renilla reference signal, replicate 2: 2361; call: inactive

With Uros1 (GeneID 31817), how do the results read?
firefly Hh reporter signal, replicate 1: 60304; firefly Hh reporter signal, replicate 2: 62368; Renilla reference signal, replicate 1: 1799; Renilla reference signal, replicate 2: 1600; call: inactive

How did the screen score BBS8 (GeneID 33217)?
firefly Hh reporter signal, replicate 1: 1.47e5; firefly Hh reporter signal, replicate 2: 1.33e5; Renilla reference signal, replicate 1: 3189; Renilla reference signal, replicate 2: 3241; call: inactive

With sqh (GeneID 31554), how do the results read?
firefly Hh reporter signal, replicate 1: 55833; firefly Hh reporter signal, replicate 2: 66500; Renilla reference signal, replicate 1: 1760; Renilla reference signal, replicate 2: 1706; call: inactive

With CG30340 (GeneID 246550), how do the results read?
firefly Hh reporter signal, replicate 1: 75013; firefly Hh reporter signal, replicate 2: 1.94e5; Renilla reference signal, replicate 1: 5383; Renilla reference signal, replicate 2: 8980; call: inactive

For CG12857 (GeneID 36642), how do the results read?
firefly Hh reporter signal, replicate 1: 65985; firefly Hh reporter signal, replicate 2: 50739; Renilla reference signal, replicate 1: 1501; Renilla reference signal, replicate 2: 3324; call: inactive

With CG31556 (retired record) (GeneID 318800), what does the deposit list?
firefly Hh reporter signal, replicate 1: 6.94e5; firefly Hh reporter signal, replicate 2: 2.40e5; firefly Hh reporter signal, replicate 3: 1.41e5; Renilla reference signal, replicate 1: 6428; Renilla reference signal, replicate 2: 5370; call: inactive

For sip3 (GeneID 43747), what was measured?
firefly Hh reporter signal, replicate 1: 93368; firefly Hh reporter signal, replicate 2: 61029; Renilla reference signal, replicate 1: 2602; Renilla reference signal, replicate 2: 2433; call: inactive

With CG3045 (GeneID 37531), what does the deposit list?
firefly Hh reporter signal, replicate 1: 79699; firefly Hh reporter signal, replicate 2: 83603; Renilla reference signal, replicate 1: 3248; Renilla reference signal, replicate 2: 3284; call: inactive

What is on record for CG1889 (GeneID 31928)?
firefly Hh reporter signal, replicate 1: 1.31e5; firefly Hh reporter signal, replicate 2: 1.15e5; Renilla reference signal, replicate 1: 2992; Renilla reference signal, replicate 2: 2807; call: inactive

With snoRNA:Me28S-C3227a + snoRNA:Me18S-A1061 + snoRNA:Me28S-C3227b + 7 more, how do the results read?
firefly Hh reporter signal, replicate 1: 8.17e5; firefly Hh reporter signal, replicate 2: 1.43e5; firefly Hh reporter signal, replicate 3: 1.30e5; Renilla reference signal, replicate 1: 5169; Renilla reference signal, replicate 2: 3920; call: inactive

For CG13300 (GeneID 38730), what does the deposit list?
firefly Hh reporter signal, replicate 1: 18592; firefly Hh reporter signal, replicate 2: 25834; Renilla reference signal, replicate 1: 2684; Renilla reference signal, replicate 2: 2032; call: inactive

For Pde8 (GeneID 37741), what was measured?
firefly Hh reporter signal, replicate 1: 1.11e5; firefly Hh reporter signal, replicate 2: 77270; Renilla reference signal, replicate 1: 4266; Renilla reference signal, replicate 2: 2951; call: inactive

What is on record for CG6153 (GeneID 34675)?
firefly Hh reporter signal, replicate 1: 88816; firefly Hh reporter signal, replicate 2: 71825; Renilla reference signal, replicate 1: 4791; Renilla reference signal, replicate 2: 3190; call: inactive

With Ak2 (GeneID 37834), what does the deposit list?
firefly Hh reporter signal, replicate 1: 90379; firefly Hh reporter signal, replicate 2: 59815; Renilla reference signal, replicate 1: 1456; Renilla reference signal, replicate 2: 4736; call: inactive

What is on record for Wee1 (GeneID 33965)?
firefly Hh reporter signal, replicate 1: 1.37e5; firefly Hh reporter signal, replicate 2: 60877; Renilla reference signal, replicate 1: 3992; Renilla reference signal, replicate 2: 6689; call: inactive

With CG15126 (GeneID 50202), what was measured?
firefly Hh reporter signal, replicate 1: 1.21e5; firefly Hh reporter signal, replicate 2: 59377; Renilla reference signal, replicate 1: 3101; Renilla reference signal, replicate 2: 4422; call: inactive

What is on record for CG12522 (GeneID 39248)?
firefly Hh reporter signal, replicate 1: 1.09e5; firefly Hh reporter signal, replicate 2: 1.87e5; Renilla reference signal, replicate 1: 2965; Renilla reference signal, replicate 2: 7544; call: inactive

With CG9616 (GeneID 41731), how do the results read?
firefly Hh reporter signal, replicate 1: 42272; firefly Hh reporter signal, replicate 2: 85897; Renilla reference signal, replicate 1: 710; Renilla reference signal, replicate 2: 1965; call: inactive

With Mur82C (GeneID 40574) #1, how do the results read?
firefly Hh reporter signal, replicate 1: 1.92e5; Renilla reference signal, replicate 1: 5184; call: inactive

With Mur82C (GeneID 40574) #2, how do the results read?
firefly Hh reporter signal, replicate 1: 1.74e5; firefly Hh reporter signal, replicate 2: 1.41e5; Renilla reference signal, replicate 1: 5491; Renilla reference signal, replicate 2: 3331; call: inactive

With Pbp45 (GeneID 41920), how do the results read?
firefly Hh reporter signal, replicate 1: 95448; firefly Hh reporter signal, replicate 2: 1.16e5; Renilla reference signal, replicate 1: 1145; Renilla reference signal, replicate 2: 3094; call: inactive

With RpS30 (GeneID 42470), how do the results read?
firefly Hh reporter signal, replicate 1: 2.88e5; firefly Hh reporter signal, replicate 2: 30432; Renilla reference signal, replicate 1: 20567; Renilla reference signal, replicate 2: 1330; call: active

With Pig1 (GeneID 31303), what does the deposit list?
firefly Hh reporter signal, replicate 1: 1.24e5; firefly Hh reporter signal, replicate 2: 1.69e5; Renilla reference signal, replicate 1: 3302; Renilla reference signal, replicate 2: 4810; call: inactive

How did the screen score Ca-alpha1D (GeneID 34950)?
firefly Hh reporter signal, replicate 1: 78252; firefly Hh reporter signal, replicate 2: 53874; Renilla reference signal, replicate 1: 4820; Renilla reference signal, replicate 2: 2650; call: inactive

How did the screen score Cdk7 (GeneID 31441)?
firefly Hh reporter signal, replicate 1: 68016; firefly Hh reporter signal, replicate 2: 1.81e5; Renilla reference signal, replicate 1: 1629; Renilla reference signal, replicate 2: 5910; call: inactive

Called active, of those listed so far:
RpS30 (GeneID 42470) → firefly Hh reporter signal, replicate 1: 2.88e5; firefly Hh reporter signal, replicate 2: 30432; Renilla reference signal, replicate 1: 20567; Renilla reference signal, replicate 2: 1330; call: active
